The assay relates to P388 leukemia ip, CD2F1 mice, survival T/C. The experiment in a line: NCI In Vivo Anticancer Drug Screen. Data for tumor model P388 Leukemia (intraperitoneal) in CD2F1 (CDF1) mice. Conditions: T/C endpoint: median survival time, schedule: Q01DX009 (ip), higher T/C = longer survival.

For two compounds, T/C results are on record in PubChem BioAssay AID330 (DTP/NCI, 2004).

The list shows only some results of the screen, not a fair sample: it covers a few groups of compounds. Not every dose and run of a compound is shown. T/C is the treated group as % of the vehicle group. Where survival is the endpoint, the PubChem record calls one and a half times the control and up active, and a quarter to a half above the control has no call in these data; cut-offs in other NCI protocols can differ. Schedule codes are those of the source, read here as Q, the interval in days (D) or hours (H), X, the number of doses. Some T/C values are marked as having no survivor count here; that says nothing about deaths at the dose.

For the compound `CC1=CC2OC3CC4OC(=O)/C=C/C=C/C(C(C)O)OCC(O)C(C)CC(=O)OCC2(CC1O)C4(C)C31CO1` (stereo not given), the T/C was 133 % of control [survivor count not shown] (dose: 0.13 mg/kg/injection, vehicle: Klucel (hydroxypropylcellulose) (HPC)); 136 % of control [survivor count not shown] (dose: 0.16 mg/kg/injection, vehicle: Klucel (hydroxypropylcellulose) (HPC)); 155 % of control [survivor count not shown] (dose: 0.25 mg/kg/injection, vehicle: Klucel (hydroxypropylcellulose) (HPC)); 133 % of control [survivor count not shown] (dose: 0.31 mg/kg/injection, vehicle: Klucel (hydroxypropylcellulose) (HPC)); 150 % of control [survivor count not shown] (dose: 0.5 mg/kg/injection, vehicle: Klucel (hydroxypropylcellulose) (HPC)); 154 % of control [survivor count not shown] (dose: 0.63 mg/kg/injection, vehicle: Klucel (hydroxypropylcellulose) (HPC)). Moreover, the T/C is, setting by setting: (dose: 1.0 mg/kg/injection, vehicle: Klucel (hydroxypropylcellulose) (HPC)) 180 % of control [survivor count not shown]; (dose: 1.25 mg/kg/injection, vehicle: Klucel (hydroxypropylcellulose) (HPC)) 163 % of control [survivor count not shown]; (dose: 7.5 micrograms/kg/injection, vehicle: saline + alcohol) 105 % of control [survivor count not shown]; (dose: 15.0 micrograms/kg/injection, vehicle: saline + alcohol) 124 % of control [survivor count not shown]; (dose: 31.0 micrograms/kg/injection, vehicle: saline + alcohol) 130 % of control [survivor count not shown]; (dose: 62.0 micrograms/kg/injection, vehicle: saline + alcohol) 140 % of control [survivor count not shown]. Moreover, the T/C by setting is: (dose: 125.0 micrograms/kg/injection, vehicle: saline + alcohol) 166 % of control [survivor count not shown]; (dose: 250.0 micrograms/kg/injection, vehicle: saline + alcohol) 158 % of control [survivor count not shown]; (dose: 500.0 micrograms/kg/injection, vehicle: saline + alcohol) 177 % of control [survivor count not shown]; (dose: 1000.0 micrograms/kg/injection, vehicle: saline + alcohol) 278 % of control [survivor count not shown].

Take `CC(=O)OC1C(=O)OCC23CCC4(C)OC4C2OC2CC(OC(=O)/C=C/C=C/C(=O)OCCC1C)C3(C)C21CO1` (stereo not given): the T/C was 149 % of control [survivor count not shown] (dose: 1.25 mg/kg/injection, vehicle: saline with Tween-80); 142 % of control [survivor count not shown] (dose: 2.5 mg/kg/injection, vehicle: saline with Tween-80); 166 % of control [survivor count not shown] (dose: 5.0 mg/kg/injection, vehicle: saline with Tween-80); 166 % of control [survivor count not shown] (dose: 10.0 mg/kg/injection, vehicle: saline with Tween-80).
